Reference: publication PMC11140966

Chains of the proteins cited; added tags and fusions are not shown.
UniProt Q61879: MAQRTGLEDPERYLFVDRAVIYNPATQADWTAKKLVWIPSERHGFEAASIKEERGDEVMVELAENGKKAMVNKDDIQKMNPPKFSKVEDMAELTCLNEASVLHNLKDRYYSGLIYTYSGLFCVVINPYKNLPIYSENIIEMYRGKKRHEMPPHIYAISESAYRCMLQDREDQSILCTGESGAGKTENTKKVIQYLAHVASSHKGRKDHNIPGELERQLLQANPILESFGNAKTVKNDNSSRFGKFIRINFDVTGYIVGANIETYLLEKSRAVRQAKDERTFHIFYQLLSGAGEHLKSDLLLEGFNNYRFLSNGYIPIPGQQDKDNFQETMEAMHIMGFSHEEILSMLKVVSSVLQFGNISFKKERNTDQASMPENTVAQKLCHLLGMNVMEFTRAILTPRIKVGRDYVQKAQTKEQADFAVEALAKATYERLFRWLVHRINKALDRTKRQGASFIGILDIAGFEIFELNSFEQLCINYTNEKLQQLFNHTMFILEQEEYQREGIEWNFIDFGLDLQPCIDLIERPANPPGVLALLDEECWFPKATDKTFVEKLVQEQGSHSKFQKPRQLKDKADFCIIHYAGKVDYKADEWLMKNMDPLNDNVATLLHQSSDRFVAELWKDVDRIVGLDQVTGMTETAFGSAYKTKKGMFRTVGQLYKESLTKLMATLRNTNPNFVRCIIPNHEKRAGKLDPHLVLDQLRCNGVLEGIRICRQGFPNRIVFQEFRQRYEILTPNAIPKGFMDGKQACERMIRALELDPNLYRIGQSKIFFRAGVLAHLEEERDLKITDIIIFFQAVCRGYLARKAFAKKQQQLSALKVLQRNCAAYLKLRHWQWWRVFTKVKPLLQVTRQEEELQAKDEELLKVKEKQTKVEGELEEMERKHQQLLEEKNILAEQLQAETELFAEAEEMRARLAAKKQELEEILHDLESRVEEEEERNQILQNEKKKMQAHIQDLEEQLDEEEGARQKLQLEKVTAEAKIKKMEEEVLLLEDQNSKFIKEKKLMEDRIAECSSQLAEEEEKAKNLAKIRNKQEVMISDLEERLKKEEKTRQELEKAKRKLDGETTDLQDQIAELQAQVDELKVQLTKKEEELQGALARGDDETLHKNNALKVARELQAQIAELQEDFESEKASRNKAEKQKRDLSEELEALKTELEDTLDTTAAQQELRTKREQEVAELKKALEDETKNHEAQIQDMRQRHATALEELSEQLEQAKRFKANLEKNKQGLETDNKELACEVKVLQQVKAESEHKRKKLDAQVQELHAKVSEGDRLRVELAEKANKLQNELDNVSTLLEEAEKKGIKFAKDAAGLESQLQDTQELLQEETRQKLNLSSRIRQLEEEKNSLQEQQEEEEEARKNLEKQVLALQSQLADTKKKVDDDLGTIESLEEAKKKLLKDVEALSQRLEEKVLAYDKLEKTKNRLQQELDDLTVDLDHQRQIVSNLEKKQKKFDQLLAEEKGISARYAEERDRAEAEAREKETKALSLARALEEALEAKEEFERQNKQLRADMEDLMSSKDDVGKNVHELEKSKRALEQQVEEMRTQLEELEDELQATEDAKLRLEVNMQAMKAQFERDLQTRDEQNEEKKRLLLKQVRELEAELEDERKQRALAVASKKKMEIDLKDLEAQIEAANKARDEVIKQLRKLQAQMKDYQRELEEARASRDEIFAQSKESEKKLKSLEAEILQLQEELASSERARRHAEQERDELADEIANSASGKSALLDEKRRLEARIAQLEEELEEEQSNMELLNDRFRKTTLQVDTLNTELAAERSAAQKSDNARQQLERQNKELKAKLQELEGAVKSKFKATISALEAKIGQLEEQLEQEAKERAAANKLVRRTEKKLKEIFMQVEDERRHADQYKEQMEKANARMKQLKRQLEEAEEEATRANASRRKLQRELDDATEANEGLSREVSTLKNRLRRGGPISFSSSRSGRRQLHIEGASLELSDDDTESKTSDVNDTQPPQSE
UniProt Q61545: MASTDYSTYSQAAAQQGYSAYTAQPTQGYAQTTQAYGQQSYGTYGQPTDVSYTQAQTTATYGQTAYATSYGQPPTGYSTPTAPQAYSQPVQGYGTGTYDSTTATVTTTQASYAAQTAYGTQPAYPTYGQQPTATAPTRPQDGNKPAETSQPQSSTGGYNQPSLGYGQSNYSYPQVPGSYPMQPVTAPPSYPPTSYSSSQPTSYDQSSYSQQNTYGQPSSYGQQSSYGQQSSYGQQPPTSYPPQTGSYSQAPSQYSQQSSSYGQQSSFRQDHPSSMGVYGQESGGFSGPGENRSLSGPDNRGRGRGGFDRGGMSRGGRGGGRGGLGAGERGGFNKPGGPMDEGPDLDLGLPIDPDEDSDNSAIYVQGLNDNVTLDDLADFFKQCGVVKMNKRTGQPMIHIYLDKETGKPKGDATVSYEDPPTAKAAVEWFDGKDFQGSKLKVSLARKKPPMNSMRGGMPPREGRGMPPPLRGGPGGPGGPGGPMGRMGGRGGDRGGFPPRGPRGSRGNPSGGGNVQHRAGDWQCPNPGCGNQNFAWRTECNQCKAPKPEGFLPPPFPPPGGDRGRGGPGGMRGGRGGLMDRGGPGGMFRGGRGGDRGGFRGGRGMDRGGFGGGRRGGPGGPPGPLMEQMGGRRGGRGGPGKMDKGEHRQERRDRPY

T1: Helicase for meiosis 1 (HFM1), endogenous in embryonic mouse ovary (mouse (endogenous in embryonic mouse ovary)) (UniProt D3Z4R1)
T1 sequence: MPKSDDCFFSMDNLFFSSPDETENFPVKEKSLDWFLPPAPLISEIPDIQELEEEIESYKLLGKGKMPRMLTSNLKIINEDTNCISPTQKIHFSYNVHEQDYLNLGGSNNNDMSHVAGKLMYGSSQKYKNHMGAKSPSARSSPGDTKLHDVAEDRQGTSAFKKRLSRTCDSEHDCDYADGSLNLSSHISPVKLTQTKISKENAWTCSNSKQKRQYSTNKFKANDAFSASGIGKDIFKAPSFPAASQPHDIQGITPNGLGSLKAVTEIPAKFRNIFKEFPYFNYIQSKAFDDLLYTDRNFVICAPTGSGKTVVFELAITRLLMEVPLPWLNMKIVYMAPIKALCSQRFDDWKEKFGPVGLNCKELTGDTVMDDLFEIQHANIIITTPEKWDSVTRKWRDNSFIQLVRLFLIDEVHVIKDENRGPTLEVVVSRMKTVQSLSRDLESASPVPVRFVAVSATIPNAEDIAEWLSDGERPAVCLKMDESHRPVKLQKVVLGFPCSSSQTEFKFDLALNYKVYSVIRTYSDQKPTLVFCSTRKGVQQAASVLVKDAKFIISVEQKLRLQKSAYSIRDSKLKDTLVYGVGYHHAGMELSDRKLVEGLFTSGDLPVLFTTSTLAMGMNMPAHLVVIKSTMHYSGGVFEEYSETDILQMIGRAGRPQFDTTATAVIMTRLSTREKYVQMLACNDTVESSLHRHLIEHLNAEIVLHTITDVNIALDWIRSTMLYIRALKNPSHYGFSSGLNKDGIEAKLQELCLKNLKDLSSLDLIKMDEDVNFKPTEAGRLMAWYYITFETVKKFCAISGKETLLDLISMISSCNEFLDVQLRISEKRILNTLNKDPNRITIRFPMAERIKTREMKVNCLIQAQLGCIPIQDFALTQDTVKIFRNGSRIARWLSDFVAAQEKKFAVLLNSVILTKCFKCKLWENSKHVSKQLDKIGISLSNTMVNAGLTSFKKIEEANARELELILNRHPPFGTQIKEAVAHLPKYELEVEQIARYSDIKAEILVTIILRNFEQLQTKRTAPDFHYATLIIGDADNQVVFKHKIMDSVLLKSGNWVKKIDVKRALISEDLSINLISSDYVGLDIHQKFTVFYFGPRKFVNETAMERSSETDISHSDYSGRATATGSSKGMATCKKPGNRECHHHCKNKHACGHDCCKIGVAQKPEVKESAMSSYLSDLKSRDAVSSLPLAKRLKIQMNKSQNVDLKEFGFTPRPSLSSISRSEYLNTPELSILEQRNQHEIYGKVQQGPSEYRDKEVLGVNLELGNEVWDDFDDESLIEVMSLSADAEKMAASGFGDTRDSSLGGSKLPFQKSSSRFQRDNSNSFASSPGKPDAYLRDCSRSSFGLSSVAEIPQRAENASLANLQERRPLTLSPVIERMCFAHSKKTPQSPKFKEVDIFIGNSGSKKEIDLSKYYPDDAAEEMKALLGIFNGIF

B1: CAPR1 (protein, UniProt Q60865 1-707)
chain: MPSATSHSGSGSKSSGPPPPSGSSGSEAAAGAAAPASQHPATGTGAVQTEAMKQILGVIDKKLRNLEKKKGKLDDYQERMNKGERLNQDQLDAVSKYQEVTNNLEFAKELQRSFMALSQDIQKTIKKTARREQLMREEAEQKRLKTVLELQYVLDKLGDDDVRTDLKQGLSGVPILSEEELSLLDEFYKLVDPERDMSLRLNEQYEHASIHLWDLLEGKEKPVCGTTYKALKEIVERVFQSNYFDSTHNHQNGLCEEEEAASAPTVEDQVAEAEPEPAEEYTEQSEVESTEYVNRQFMAETQFSSGEKEQVDEWTVETVEVVNSLQQQPQAASPSVPEPHSLTPVAQSDPLVRRQRVQDLMAQMQGPYNFIQDSMLDFENQTLDPAIVSAQPMNPTQNMDMPQLVCPQVHSESRLAQSNQVPVQPEATQVPLVSSTSEGYTASQPLYQPSHATEQRPQKEPMDQIQATISLNTDQTTASSSLPAASQPQVFQAGTSKPLHSSGINVNAAPFQSMQTVFNMNAPVPPANEPETLKQQSQYQATYNQSFSSQPHQVEQTELQQDQLQTVVGTYHGSQDQPHQVPGNHQQPPQQNTGFPRSSQPYYNSRGVSRGGSRGARGLMNGYRGPANGFRGGYDGYRPSFSNTPNSGYSQSQFTAPRDYSGYQRDGYQQNFKRGSGQSGPRGAPRGRGGPPRPNRGMPQMNTQQVN

What follows are molecules tested against T1, Helicase for meiosis 1 (HFM1), endogenous in embryonic mouse ovary (mouse (endogenous in embryonic mouse ovary)) (assay: affinity purification with mass spectrometry; HFM1-IP on Protein A/G magnetic beads from digested 17.5 dpc mouse ovaries, 1 h at room temperature; eluted proteins analysed by silver stain and mass spectrometry).
With MYH10 (from UniProt Q61879 1-1976) the binding was “binds”. GCAB was tested, and the binding was “binds”. For IGHG3, the binding was “binds”. EWS (from UniProt Q61545 1-655) was tested, and the binding was “binds”. In the case of B1, the binding is reported as “binds”.

Results are given in words; binding and its absence hold for the method and conditions named. Binding seen in cells or lysates may run through a third protein. A yes stands for co-enrichment or nearness to the bait. Other partners may have been found.
